PubChem BioAssay AID504764 – Drosophila RNAi Screening Center – 2011

Screen: 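Genome-wide screen for regulators of Notch-driven gene expression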 (primary screen)
Cells: Drosophila Kc167 cells
Knock-down reagent: long dsRNA against Drosophila genes
Time to read-out: about 5 days (4 days dsRNA, then 24 h after transfection)
Conditions: transfection of constitutively active membrane-tethered Notch lacking the extracellular domain, read 24 h later
Measured: 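Light from a Notch-responsive E(spl)m3 luciferase reporter under active Notch, with control-promoter and no-Notch reporter wells to normalise; raw counts from paired wells a and b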
Scale: induced reporter light, run 1, well a and induced reporter light, run 1, well b: higher = more light from the Notch target reporter with active Notch; control promoter light, run 1, well a and control promoter light, run 1, well b: higher = more light from the viral control promoter (cell number, transfection, viability); uninduced reporter light, run 1, well a: higher = more light from the Notch target reporter without active Notch
Rule for the call: 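Wells with low control signal or poorly matching duplicates excluded; duplicates averaged; per source plate, z beyond ±2 for induced/control log2 ratio or beyond ±1.8 for induced/uninduced marks a hit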
Calls: active = modifier hit (raised or lowered Notch signal); inactive = not a hit
The screen tested about 22,000 reagents; below is a random part of those that have a named target and a result. Of all reagents, 403 (1.9%) were called active. 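Unnormalised raw counts per well; ratio z-scores behind the hit calls and whether each hit raises or lowers signal are not deposited.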 The numbers tell different reagents against one gene apart. A plus sign joins genes that one reagent is predicted to hit. The record does not give: the amount of reagent.

Gene | dsRNA no. | induced reporter light, run 1, well a | induced reporter light, run 1, well b | control promoter light, run 1, well a | control promoter light, run 1, well b | uninduced reporter light, run 1, well a | Call
Klp64D (GeneID 38611) | 1 | 3.02e5 | 2.22e5 | 2.22e5 | 2.08e5 | 15405 | inactive
PolQ (GeneID 41571) | 1 | 71720 | 67870 | 45995 | 48875 | 5630 | inactive
CG3032 (GeneID 31648) | 1 | 1.29e5 | 1.46e5 | 2.95e5 | 2.87e5 | 10640 | inactive
Coa8 (GeneID 31148) | 1 | 1.40e5 | 1.18e5 | 2.14e5 | 2.12e5 | 9835 | inactive
CG14949 (GeneID 38328) | 1 | 1.35e5 | 1.13e5 | 1.82e5 | 1.18e5 | 6365 | inactive
SppL (GeneID 43128) | 1 | 1.52e5 | 1.38e5 | 1.66e5 | 1.81e5 | 13620 | inactive
alpha-Est5 (GeneID 40905) | 1 | 1.53e5 | 1.13e5 | 1.01e5 | 1.01e5 | 11695 | inactive
CG1737 (GeneID 32077) | 1 | 1.91e5 | 1.84e5 | 3.52e5 | 2.72e5 | 14085 | inactive
CG33914 (GeneID 3772464) | 1 | 54335 | 62905 | 86655 | 1.11e5 | 5315 | inactive
Lpin (GeneID 35790) | 1 | 1.58e5 | 1.45e5 | 1.65e5 | 1.65e5 | 14590 | inactive
CG6026 (GeneID 42287) | 1 | 1.68e5 | 1.42e5 | 1.73e5 | 1.81e5 | 12130 | inactive
CG8661 (GeneID 32720) | 1 | 1.26e5 | 1.14e5 | 1.33e5 | 1.09e5 | 14190 | inactive
Helz (GeneID 39613) | 1 | 87735 | 1.08e5 | 71270 | 77750 | 7420 | inactive
pho (GeneID 43819) | 1 | 83440 | 1.08e5 | 1.57e5 | 1.72e5 | 8470 | inactive
kraken (GeneID 33265) | 1 | 1.15e5 | 1.06e5 | 92360 | 58210 | 9810 | inactive
CrebB (GeneID 32817) | 1 | 57575 | 43410 | 62390 | 48965 | 8105 | inactive
CR33317 (GeneID 8674083) | 1 | 37900 | 25000 | 29810 | 26650 | 2000 | inactive
RpL11 (GeneID 37235) | 1 | 6105 | 7045 | 12278 | 11525 | 680 | inactive
ari-1 (GeneID 32796) | 1 | 74025 | 72310 | 62730 | 64095 | 8435 | inactive
Scox (GeneID 33711) | 1 | 34460 | 36675 | 34350 | 34785 | 2138 | inactive
CG4025 (GeneID 31177) | 1 | 1.06e5 | 85140 | 1.57e5 | 1.94e5 | 7360 | inactive
CG2641 (GeneID 40921) | 1 | 55005 | 60135 | 57135 | 46285 | 4305 | inactive
CG18787 + CG18789 | 1 | 56870 | 54200 | 35930 | 32955 | 10578 | inactive
aph-1 (GeneID 33467) | 1 | 1.38e5 | 1.48e5 | 1.43e5 | 2.07e5 | 13770 | inactive
Cul2 (GeneID 35420) | 1 | 2.13e5 | 2.58e5 | 1.70e5 | 1.90e5 | 14005 | inactive
Shmt (GeneID 31524) | 1 | 1.32e5 | 1.55e5 | 2.51e5 | 2.63e5 | 10890 | inactive
CG2616 (GeneID 40915) | 1 | 1.14e5 | 82555 | 71605 | 64640 | 6175 | inactive
CG14020 (GeneID 33771) | 1 | 1.75e5 | 1.65e5 | 1.73e5 | 1.70e5 | 11235 | inactive
CG31099 (GeneID 326117) | 1 | 1.41e5 | 1.33e5 | 1.69e5 | 1.47e5 | 12565 | inactive

Continued; the last 3 above are carried over.
Gene | dsRNA no. | induced reporter light, run 1, well a | induced reporter light, run 1, well b | control promoter light, run 1, well a | control promoter light, run 1, well b | uninduced reporter light, run 1, well a | Call
CG2616 (GeneID 40915) | 1 | 1.14e5 | 82555 | 71605 | 64640 | 6175 | inactive
CG14020 (GeneID 33771) | 1 | 1.75e5 | 1.65e5 | 1.73e5 | 1.70e5 | 11235 | inactive
CG31099 (GeneID 326117) | 1 | 1.41e5 | 1.33e5 | 1.69e5 | 1.47e5 | 12565 | inactive
Sytalpha (GeneID 35068) | 1 | 1.06e5 | 1.32e5 | 1.45e5 | 1.47e5 | 9850 | inactive
Ir31a (GeneID 318912) | 1 | – | – | – | – | – | inactive
Cyp6w1 (GeneID 35543) | 1 | 1.75e5 | 2.18e5 | 1.72e5 | 1.41e5 | 13880 | inactive
CG11598 (GeneID 41554) | 1 | 6700 | 7940 | 8890 | 7105 | 645 | inactive
RpL27A (GeneID 33654) | 1 | 12005 | 8235 | 14675 | 14042 | 640 | inactive
CG6005 (GeneID 42279) | 1 | 1.89e5 | 2.05e5 | 2.47e5 | 2.86e5 | 16925 | inactive
CG8460 (GeneID 34115) | 1 | 1.62e5 | 1.78e5 | 2.01e5 | 1.94e5 | 17135 | inactive
cer (GeneID 37229) | 1 | 38880 | 37525 | 37310 | 42905 | 3745 | inactive
CG12902 (GeneID 36092) | 1 | 2.01e5 | 1.51e5 | 2.51e5 | 2.49e5 | 14705 | inactive
Cyfip (GeneID 41861) | 1 | 96600 | 76150 | 78965 | 83955 | 5405 | inactive
atk (GeneID 40266) | 1 | 2.09e5 | 2.42e5 | 2.71e5 | 2.67e5 | 16370 | inactive
atk (GeneID 40266) | 2 | 1.65e5 | 1.34e5 | 1.18e5 | 1.11e5 | 7430 | inactive
Epp (GeneID 42840) | 1 | 1.57e5 | 1.69e5 | 2.17e5 | 2.14e5 | 15188 | inactive
Traf-like (GeneID 32611) | 1 | 1.61e5 | 1.81e5 | 2.61e5 | 2.69e5 | 13680 | inactive
CG43736 + CG33692 (retired record) | 1 | 1.37e5 | 1.35e5 | 3.32e5 | 3.37e5 | 10742 | active
CG43736 + CG33692 (retired record) | 2 | 1.32e5 | 1.41e5 | 2.49e5 | 2.49e5 | 10625 | inactive
mei-P22 (GeneID 38797) | 1 | 1.65e5 | 1.63e5 | 2.60e5 | 1.76e5 | 8240 | inactive
CG11145 (GeneID 35663) | 1 | 1.94e5 | 1.55e5 | 2.01e5 | 2.09e5 | 16605 | inactive
CG10565 (GeneID 40332) | 1 | 95965 | 96075 | 42275 | 66500 | 7940 | inactive
Sas-6 (GeneID 43555) | 1 | 1.39e5 | 1.48e5 | 2.18e5 | 1.84e5 | 10535 | inactive
rut (GeneID 32406) | 1 | 2985 | 2415 | 3850 | 4015 | 3445 | inactive
